Values of other authors, collected in US5506213A, “Adminstration of 2'-halo-2'-deoxy adenosine to treat inflammatory bowel disease” (priority 1994, dated 1996).
The name of at least one read-out is uncertain.

Details: humans, infusion; cited from earlier work

Structure (SMILES): Nc1nc(Cl)nc2c1ncn2[C@H]1C[C@H](O)[C@@H](CO)O1 [CdA, 2-chloro-9,1'-beta-D-2'-deoxyribosyladenine]
- dose at which dose-limiting bone marrow suppression usually occurred: greater than 0.2 mg/kg/day
